Differences between knockout arms are mostly noise.
Tested on: BT-20
Assay: relative cell number vs DMSO control (72 h) (% of DMSO); higher = less growth inhibition (more cells)
Description: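 QMAP-Seq: a pool of 5 breast cancer cell lines (ZR-75-1, SKBR3, HCC-38, MDA-MB-231, BT-20), each carrying 12 doxycycline-inducible Cas9 sgRNA perturbations (11 knockouts plus non-targeting sgNT), was treated with compounds for 72 h at four 10-fold doses (10 nM-10 uM or 1 nM-1 uM range). Barcodes were amplified and sequenced, and cell number was interpolated from 293T spike-in standard curves. The result is expressed as % of the median of DMSO wells. Two biological replicates.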

CNC(=O)c1cc(Oc2ccc(NC(=O)Nc3ccc(Cl)c(C(F)(F)F)c3)c(F)c2)ccn1 [Regorafenib]
Conditions	relative cell number
sgRNA knockout: sgATF3, 10 nM	95.3
sgRNA knockout: sgATF3, 100 nM	100
sgRNA knockout: sgATF3, 1000 nM	101
sgRNA knockout: sgATF3, 10000 nM	46.1
sgRNA knockout: sgATF4, 10 nM	119
sgRNA knockout: sgATF4, 100 nM	103
sgRNA knockout: sgATF4, 1000 nM	100
sgRNA knockout: sgATF4, 10000 nM	52.1
sgRNA knockout: sgATF6, 10 nM	101
sgRNA knockout: sgATF6, 100 nM	100
sgRNA knockout: sgATF6, 1000 nM	98.3
sgRNA knockout: sgATF6, 10000 nM	45.1
sgRNA knockout: sgATG7, 10 nM	99.5
sgRNA knockout: sgATG7, 100 nM	92.3
sgRNA knockout: sgATG7, 1000 nM	119
sgRNA knockout: sgATG7, 10000 nM	47.2
sgRNA knockout: sgERN1, 10 nM	116
sgRNA knockout: sgERN1, 100 nM	105
sgRNA knockout: sgERN1, 1000 nM	96.7
sgRNA knockout: sgERN1, 10000 nM	51.6
sgRNA knockout: sgHSF1, 10 nM	94.9
sgRNA knockout: sgHSF1, 100 nM	108
sgRNA knockout: sgHSF1, 1000 nM	85.8
sgRNA knockout: sgHSF1, 10000 nM	46.3
sgRNA knockout: sgHSF2, 10 nM	93.2
sgRNA knockout: sgHSF2, 100 nM	108
sgRNA knockout: sgHSF2, 1000 nM	117
sgRNA knockout: sgHSF2, 10000 nM	46
sgRNA knockout: sgKEAP1, 10 nM	89.1
sgRNA knockout: sgKEAP1, 100 nM	104
sgRNA knockout: sgKEAP1, 1000 nM	99.8
sgRNA knockout: sgKEAP1, 10000 nM	42.1
sgRNA knockout: sgNFE2L2, 10 nM	108
sgRNA knockout: sgNFE2L2, 100 nM	128
sgRNA knockout: sgNFE2L2, 1000 nM	121
sgRNA knockout: sgNFE2L2, 10000 nM	47.4
sgRNA knockout: sgSLC35F2, 10 nM	118
sgRNA knockout: sgSLC35F2, 100 nM	106
sgRNA knockout: sgSLC35F2, 1000 nM	98.8
sgRNA knockout: sgSLC35F2, 10000 nM	47.9
sgRNA knockout: sgXBP1, 10 nM	95.2
sgRNA knockout: sgXBP1, 100 nM	112
sgRNA knockout: sgXBP1, 1000 nM	102
sgRNA knockout: sgXBP1, 10000 nM	45.9

CC(C)(C)c1cnc(CSc2cnc(NC(=O)C3CCNCC3)s2)o1 [SNS032]
Conditions	relative cell number
sgRNA knockout: sgATF3, 10 nM	95.5
sgRNA knockout: sgATF3, 100 nM	85.7
sgRNA knockout: sgATF3, 1000 nM	25.76
sgRNA knockout: sgATF3, 10000 nM	28.4
sgRNA knockout: sgATF4, 10 nM	93.3
sgRNA knockout: sgATF4, 100 nM	109
sgRNA knockout: sgATF4, 1000 nM	24.7
sgRNA knockout: sgATF4, 10000 nM	29.4
sgRNA knockout: sgATF6, 10 nM	102
sgRNA knockout: sgATF6, 100 nM	91.3
sgRNA knockout: sgATF6, 1000 nM	22.7
sgRNA knockout: sgATF6, 10000 nM	34.2
sgRNA knockout: sgATG7, 10 nM	84.1
sgRNA knockout: sgATG7, 100 nM	85.4
sgRNA knockout: sgATG7, 1000 nM	24.1
sgRNA knockout: sgATG7, 10000 nM	36.3
sgRNA knockout: sgERN1, 10 nM	112.6
sgRNA knockout: sgERN1, 100 nM	83.1
sgRNA knockout: sgERN1, 1000 nM	28.9
sgRNA knockout: sgERN1, 10000 nM	33.8
sgRNA knockout: sgHSF1, 10 nM	92.3
sgRNA knockout: sgHSF1, 100 nM	77.3
sgRNA knockout: sgHSF1, 1000 nM	22.3
sgRNA knockout: sgHSF1, 10000 nM	36
sgRNA knockout: sgHSF2, 10 nM	88.7
sgRNA knockout: sgHSF2, 100 nM	76.5
sgRNA knockout: sgHSF2, 1000 nM	25.7
sgRNA knockout: sgHSF2, 10000 nM	32.1
sgRNA knockout: sgKEAP1, 10 nM	102
sgRNA knockout: sgKEAP1, 100 nM	86.1
sgRNA knockout: sgKEAP1, 1000 nM	25.5
sgRNA knockout: sgKEAP1, 10000 nM	35.1
sgRNA knockout: sgNFE2L2, 10 nM	110
sgRNA knockout: sgNFE2L2, 100 nM	94
sgRNA knockout: sgNFE2L2, 1000 nM	31
sgRNA knockout: sgNFE2L2, 10000 nM	35.4
sgRNA knockout: sgSLC35F2, 10 nM	91.5
sgRNA knockout: sgSLC35F2, 100 nM	109.3
sgRNA knockout: sgSLC35F2, 1000 nM	26.6
sgRNA knockout: sgSLC35F2, 10000 nM	28.21
sgRNA knockout: sgXBP1, 10 nM	108
sgRNA knockout: sgXBP1, 100 nM	91
sgRNA knockout: sgXBP1, 1000 nM	29
sgRNA knockout: sgXBP1, 10000 nM	27.8
